In PubChem BioAssay AID2685 (National Center for Advancing Translational Sciences (NCATS), 2010):
This is one part of the list. These are further read-outs of the screen, such as a control signal, another cell line or another target. No call is given for them. The list favours compounds with an active or inconclusive main result. Words in brackets tell the shape of the fitted curve; partial curves, single points and poor fits give uncertain potencies.

Experiment: qHTS Assay for Lipid Storage Modulators in Drosophila S3 Cells;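 as to cell number change: cells counted by Cell Tracker Red CMTPX staining in the red channel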
Settings: BODIPY lipid droplet fluorescence, 18-24 h; for cell number change: measured here: cell count max response, cells fed with added oleic acid
Outline: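 Laser-scanning cytometry quantifies lipid droplet accumulation (500–530 nm total intensity; droplet/cell object ratio) in oleic acid-fed (400 uM added) Drosophila S3 cells treated with a concentration series. 20 uM Triacsin C defined 100% inhibition.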

[1] = measured here: lipid fluorescence (Fed channel) AC50, cells fed with added oleic acid
[2] = measured here: cell number channel AC50, cells fed with added oleic acid

SMILES | cell number change [%] | AC50 [1] | AC50 [2]
O=c1cc(O)c2c(=O)n(C3CCCCC3)c3ccccc3c2o1 | 5.05 | 3.66 µM [falling, partial curve, poor fit] | 
COc1ccc(OCCCC(=O)Nc2ncn[nH]2)cc1 | 35 |  | 29.1 µM [rising, single point]
Cc1cccc(N2CCN(C(=S)Nc3ccc4nc(N5CCN(C)CC5)cc(C)c4c3)CC2C)c1 (configuration not stated) | -49 |  | 32.6 µM [falling, single point]
COc1ccc(S(=O)(=O)NCCc2cn3nc(C)c(C)nc3n2)cc1 | -13.5 | 4.61 µM [falling, single point] | 
CCCC(C)NC(=O)/C=C/c1cccc([N+](=O)[O-])c1 (configuration not stated) |  |  | 0.731 µM [rising, single point]
CCc1c(C)sc(NC(=O)c2ccoc2C)c1C(N)=O | -4.11 |  | 
Cc1ccccc1N=Nc1c(C)[nH]n(-c2ccccc2)c1=O | -0.608 |  | 5.8 µM [falling, single point]
Cc1cc(NC(=O)c2c(Cl)cnn2C)no1 | -2.07 | 13 µM [falling, partial curve] | 1.46 µM [falling, full curve]
COc1ccc(N2C(=O)[C@@H]3[C@H](C2=O)[C@H](C(=O)c2ccc(OC(C)=O)cc2)N2N=CC=C[C@@H]32)cc1 | -3.83 | 7.31 µM [rising, partial curve, poor fit] | 
COC(=O)c1ccc(COc2ncnc3c(Cl)cc(Cl)cc23)o1 | 22.2 | 3.26 µM [rising, partial curve] | 1.84 µM [rising, partial curve, poor fit]
O=C1C2C3C=CC(C3)C2C(=O)N1Nc1ccccc1 (configuration not stated) | 7.95 | 29.1 µM [rising, single point] | 
COc1ccc(OC)c(C2C(C(N)=O)=C(C)Nc3nc(CCCO)nn32)c1 (configuration not stated) | -38.1 | 8.2 µM [falling, partial curve, poor fit] | 29.1 µM [falling, single point]
COc1cc(/C=C2\Oc3cc(O)ccc3C2=O)ccc1O | -30.1 | 23.1 µM [falling, single point] | 16.4 µM [falling, single point]
O=C(CN1CSCC1=O)N1CCN(S(=O)(=O)c2cccc(F)c2)CC1 | 42 | 2.31 µM [rising, full curve] | 0.146 µM [rising, full curve, poor fit]
Cc1ccccc1CSCCNC(=O)c1ccccc1 | 5.94 | 29.1 µM [rising, single point] | 
O=C(CSc1nnc(Cc2cc(=O)[nH]c(=O)[nH]2)n1-c1ccc(Cl)cc1)NCC1CCCO1 (configuration not stated) | -2.8 | 0.00517 µM [falling, full curve, poor fit] | 
COc1ccc(-c2c3c(cc4ncn(Cc5ccccc5)c24)COC3=O)cc1 | -14.2 | 9.2 µM [falling, single point] | 0.82 µM [falling, single point]
CC1=C(C)CC(C(=O)c2ccc(C)cc2)C(C(=O)O)C1 (configuration not stated) | 9.62 | 29.1 µM [rising, single point] | 
O=C(c1ccc(N2CCN(C(=O)c3ccccc3)CC2)cc1)c1cccc(F)c1 |  | 2.31 µM [falling, partial curve] | 
CCc1nnc(NC(=O)c2ccc(NC(=O)C(C)C)cc2)s1 | -28.3 | 8.2 µM [falling, partial curve, poor fit] | 
CCCC(=O)NC(Nc1cccc(C(F)(F)F)c1)C(Cl)(Cl)Cl (configuration not stated) | -28.2 | 32.6 µM [falling, partial curve] | 

SMILES | cell number change [%] | AC50 [1] | AC50 [2]
O=C(COc1c(Cl)cc(Cl)cc1Cl)c1ccc(Cl)cc1 | 3.77 | 0.164 µM [falling, full curve, poor fit] | 
CCCCCCCNC(=O)C1(CC2CC(c3ccc(Cl)cc3)=NO2)CCN(C(=O)CCCCCBr)CC1 (configuration not stated) | 11 | 20.6 µM [falling, single point] | 
COc1cc2[nH]c(=O)n(CCCCCC(=O)NCCc3c[nH]c4ccccc34)c(=O)c2cc1OC |  | 2.91 µM [rising, full curve] | 3.26 µM [rising, single point]
O=C(CN1C(=O)COc2ccccc21)Nc1ccc(N2CCOCC2)cc1 | -12.9 | 29.1 µM [rising, single point] | 0.13 µM [rising, full curve, poor fit]
COc1cccc(NC(=O)NCCN2CCCCC2)c1 | 26 | 29.1 µM [rising, single point] | 
COC(=O)CN1C(=S)N(C)C(=O)C1CC(=O)Nc1ccccc1 (configuration not stated) | 7.25 |  | 
Cc1cc(OCCCC(=O)N2CCCCC2)cc(C)c1Cl |  |  | 4.11 µM [falling, single point]
Cc1cc2oc(=O)sc2cc1NS(=O)(=O)c1cccc2cccnc12 | 8.4 | 0.00517 µM [falling, full curve, poor fit] | 
CC1CCN(S(=O)(=O)c2ccc3c(c2)oc(=O)n3CC(=O)NCc2ccc3c(c2)OCO3)CC1 | -6.85 | 29.1 µM [rising, single point] | 
COc1ccc(OC)c(Nc2nc(N)nc(-c3cc4ccccc4o3)n2)c1 | -3.98 |  | 
CCN1CCSc2ccc(C(=O)NCc3ccccc3F)cc21 | -0.576 |  | 
Cc1ccc(NC(=O)COC(=O)CCn2c(C)csc2=O)cc1S(=O)(=O)N1CCOCC1 | 8.5 |  | 
COc1ccc(C(C(=O)NCC2CCCO2)N(C(=O)CNC(=O)c2ccco2)c2ccc(C)c(C)c2)cc1OC (configuration not stated) | -3.85 |  | 
CC(=O)c1ccc(NC(=O)COc2ccccc2C(=O)Nc2ccc(C)cn2)cc1 | -16.2 |  | 
CCn1nc(C(=O)OCc2cccc(S(=O)(=O)N(C)C)c2)c2ccccc2c1=O | -32.9 | 7.31 µM [falling, partial curve] | 8.2 µM [falling, partial curve, poor fit]
O=C1C2C3C=CC(C3)C2C(=O)N1CCN1CCN(Cc2ccc([N+](=O)[O-])cc2)CC1 (configuration not stated) | -51.5 |  | 
CC(=O)c1cn(CC(=O)Nc2ccc(C)cc2)c2ccccc12 | 9 | 0.517 µM [rising, partial curve, poor fit] | 
COc1ccc(C(=O)Nc2ccccc2N2CCOCC2)cc1S(=O)(=O)N1CCCC1 | 4.48 | 0.0259 µM [rising, full curve, poor fit] | 2.31 µM [rising, partial curve]
CC(C)C(NS(=O)(=O)c1cc(C(=O)O)ccc1Cl)C(=O)O (configuration not stated) | -24 | 25.9 µM [falling, single point] | 
CCOc1ccc(CN(C)CC(=O)NCc2ccccc2Cl)cc1 | 29.9 |  | 
Cc1ccc(CN2CCCCC2C(=O)Nc2ccc(Oc3cccnc3)cc2)o1 (configuration not stated) | 12.4 |  | 

SMILES | cell number change [%] | AC50 [1] | AC50 [2]
COc1ccc(Cc2noc(CN3CCC(c4ccncc4)CC3)n2)cc1OC | -13.5 |  | 
N/C(Cc1ccc(Cl)cc1)=N\OC(=O)C1CCCCC1 | -16.7 |  | 0.00517 µM [falling, full curve, poor fit]
O=C(Cn1cc(C(F)(F)F)ccc1=O)N1CCN(S(=O)(=O)c2ccccc2)CC1 | 25.4 | 29.1 µM [rising, single point] | 
CCN(CC(=O)NCc1cccs1)C(=O)c1ccc(NS(=O)(=O)c2ccc(F)cc2)cc1 | 9.63 | 29.1 µM [falling, single point] | 
CCOC(=O)c1nnn(CC(=O)Nc2cc(Cl)ccc2C)c1C(=O)OCC |  | 0.146 µM [rising, full curve] | 
CCOC(=O)COc1nc(OC)nc(N2CCOCC2)n1 | -13.5 | 29.1 µM [falling, single point] | 
O=C(Nc1ccccc1N1CCN(C(=O)c2ccccc2)CC1)c1ccc([N+](=O)[O-])o1 |  | 7.31 µM [falling, partial curve] | 
O=C(CN1CCN(S(=O)(=O)c2ccc(Cl)c(Cl)c2)CC1)N1CCCCC1 | 2.52 | 6.51 µM [falling, partial curve, poor fit] | 
CN(C)CCCOC(=O)c1ccccc1 | -2.21 |  | 
COc1ccc(NC(=O)Nc2nc3ccccc3s2)cc1 | -32.9 | 6.51 µM [falling, single point] | 29.1 µM [falling, single point]
CCOc1cc(/C=N/N2CCOCC2)ccc1OCc1ccc(C(=O)OC)o1 | -13.5 |  | 0.00461 µM [falling, full curve, poor fit]
CCOC(=O)c1c(C)[nH]c(C)c1C(=O)CSc1nnc(-c2ccncc2)n1C | 6.11 |  | 1.64 µM [rising, partial curve, poor fit]
CCOCCc1nnc(NC(=O)C2CC(=O)N(CCc3ccc(F)cc3)C2)s1 (configuration not stated) | 1.28 | 29.1 µM [falling, single point] | 
Cc1ccc(CNC(=O)COC(=O)CCOc2ccc(C)cc2)cc1 | 26.9 |  | 
CC1(C)OCC(COC(=O)Nc2cccnc2)([N+](=O)[O-])CO1 |  | 29.1 µM [rising, single point] | 
CC(C)N(C(=O)c1ccc2nc(-c3ccccc3)c(-c3ccccc3)nc2c1)C(C)C |  | 23.1 µM [falling, partial curve] | 
Cc1cc(Cl)ccc1OCC(=O)OCC(=O)NC1CCCC1 | -3.88 | 32.6 µM [falling, partial curve, poor fit] | 
O=C(c1ccc(CSCc2ccccc2F)o1)N1CCN(c2ccc(N3CCOCC3)nn2)CC1 | 123 |  | 3.66 µM [rising, full curve]
CCN1C(=O)CSC1=NC1C2CC3CC(C2)CC1C3 (configuration not stated) | -49 |  | 29.1 µM [falling, single point]

In a second layout: results already given

| SMILES | cell number change [%] | AC50 [1] | AC50 [2] |
| --- | --- | --- | --- |
| COc1ccc(NC(=O)Nc2nc3ccccc3s2)cc1 | -32.9 | 6.51 µM [falling, single point] | 29.1 µM [falling, single point] |
| CCOCCc1nnc(NC(=O)C2CC(=O)N(CCc3ccc(F)cc3)C2)s1 (configuration not stated) | 1.28 | 29.1 µM [falling, single point] |  |
| Cc1cc(Cl)ccc1OCC(=O)OCC(=O)NC1CCCC1 | -3.88 | 32.6 µM [falling, partial curve, poor fit] |  |
| CCN1C(=O)CSC1=NC1C2CC3CC(C2)CC1C3 (configuration not stated) | -49 |  | 29.1 µM [falling, single point] |
